Experimental data taken from article PMC7104407.
These are yes or no findings as the source states them, for the method shown. Binding seen in cells or lysates may run through a third protein. Some entries that bind do so weakly or less than the wild type. One block for each substance: values may come before it.

Amino acid sequences for entries named in this document (tags omitted). A change or cut given only in a name is not applied to a line headed by its entry.
UniProt P50750: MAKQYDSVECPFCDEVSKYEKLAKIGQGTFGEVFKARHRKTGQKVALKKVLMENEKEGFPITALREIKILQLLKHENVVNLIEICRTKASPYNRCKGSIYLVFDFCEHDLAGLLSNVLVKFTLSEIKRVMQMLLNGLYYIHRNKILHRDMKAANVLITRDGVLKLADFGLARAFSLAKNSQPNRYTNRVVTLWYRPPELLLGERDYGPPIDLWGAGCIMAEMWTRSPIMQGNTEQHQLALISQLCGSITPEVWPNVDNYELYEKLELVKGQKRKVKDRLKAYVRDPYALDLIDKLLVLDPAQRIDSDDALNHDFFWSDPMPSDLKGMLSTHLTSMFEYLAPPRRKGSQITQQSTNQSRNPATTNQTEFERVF
UniProt Q96CJ1: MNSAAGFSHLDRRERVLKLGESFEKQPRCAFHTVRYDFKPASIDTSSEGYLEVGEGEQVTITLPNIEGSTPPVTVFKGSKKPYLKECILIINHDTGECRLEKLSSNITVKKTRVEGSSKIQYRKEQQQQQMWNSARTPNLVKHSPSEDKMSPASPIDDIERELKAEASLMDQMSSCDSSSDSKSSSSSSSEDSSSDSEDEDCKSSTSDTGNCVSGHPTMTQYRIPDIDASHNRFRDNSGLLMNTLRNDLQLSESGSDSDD
UniProt Q13547: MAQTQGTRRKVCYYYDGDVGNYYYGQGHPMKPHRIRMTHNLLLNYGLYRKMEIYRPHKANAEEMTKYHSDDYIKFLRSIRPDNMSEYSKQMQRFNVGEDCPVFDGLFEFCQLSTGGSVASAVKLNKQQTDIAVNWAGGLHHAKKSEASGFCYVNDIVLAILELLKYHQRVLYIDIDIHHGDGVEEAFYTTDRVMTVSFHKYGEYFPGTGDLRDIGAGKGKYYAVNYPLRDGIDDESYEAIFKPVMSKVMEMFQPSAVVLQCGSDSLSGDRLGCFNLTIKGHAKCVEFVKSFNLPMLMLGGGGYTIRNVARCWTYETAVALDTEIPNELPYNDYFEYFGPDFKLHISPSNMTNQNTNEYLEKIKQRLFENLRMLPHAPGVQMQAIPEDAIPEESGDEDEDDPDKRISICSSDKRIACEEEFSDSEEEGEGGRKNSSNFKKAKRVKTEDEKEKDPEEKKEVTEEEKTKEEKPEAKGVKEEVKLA
UniProt O15379: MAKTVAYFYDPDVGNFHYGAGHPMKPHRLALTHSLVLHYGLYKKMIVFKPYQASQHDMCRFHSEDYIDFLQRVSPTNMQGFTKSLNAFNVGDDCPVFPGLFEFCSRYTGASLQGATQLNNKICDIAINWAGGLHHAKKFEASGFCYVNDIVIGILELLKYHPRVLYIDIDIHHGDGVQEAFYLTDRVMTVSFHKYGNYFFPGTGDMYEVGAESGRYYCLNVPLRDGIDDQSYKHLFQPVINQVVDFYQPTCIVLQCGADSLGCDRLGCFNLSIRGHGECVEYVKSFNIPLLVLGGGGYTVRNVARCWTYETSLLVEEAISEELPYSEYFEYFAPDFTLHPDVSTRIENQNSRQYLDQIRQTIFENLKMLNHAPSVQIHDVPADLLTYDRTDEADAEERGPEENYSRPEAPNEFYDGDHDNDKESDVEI

Experiments:
[1] = target: FLAG-HA−DBC1 (human) (UniProt Q8N163); assay: co-IP; IP from nuclear extract of the FLAG-HA−DBC1 stable cell line, then immunoblotting
[2] = target: DBC1, ectopically expressed (human) (UniProt Q8N163); assay: co-IP; co-IP and Western blot of HDAC1-8 with ELL or with DBC1 in 293T cells
[3] = target: ELL, ectopically expressed (human) (UniProt P55199); assay: as above
[4] = target: ELL, ectopically expressed (human) (UniProt P55199); assay: co-IP; indicated ELL domains with HDAC3 within mammalian cells
[5] = target: ELL elongation-deficient domain (374 to 621) (human) (UniProt P55199); assay: as above
[6] = target: ELL, endogenous (human) (UniProt P55199); assay: co-IP; endogenous ELL and HDAC3, with overexpression of DBC1 (SI Appendix, Fig. S4K)
[7] = target: ELL, ectopically expressed (human) (UniProt P55199); assay: co-IP; IP of ELL from 293T cells with increasing expression of ectopic DBC1; blots for HDAC3 and DBC1
[8] = target: ELL, ectopically expressed (human) (UniProt P55199); assay: co-IP; one partner ectopic, the other endogenous (SI Appendix, Fig. S3H and S3I)

Substance: CDK9 (from UniProt P50750 1-372)
binding [1]: binds

Substance: EAF2 (from UniProt Q96CJ1 1-260)
binding [1]: binds

Substance: HDAC1 (from UniProt Q13547 1-482) (enzyme)
binding [2]: binds
binding [3]: binds

Substance: HDAC3, ectopically expressed (from UniProt O15379 1-428) (enzyme)
binding [2]: binds
binding [3]: binds

Substance: HDAC3, endogenous (from UniProt O15379 1-428) (enzyme)
binding [8]: binds

Continued, values first:

binding [1]: binds
Substance: EAF1 (from UniProt Q96JC9 1-268)

binding [4]: binds
binding [5]: no binding
binding [6]: binds
binding [7]: binds
Substance: HDAC3 (co-IPs of Fig. 3C, Fig. 3D and SI Fig. S4K) (from UniProt O15379 1-428) (enzyme)

binding [3]: binds
Substance: HDAC5 (from UniProt Q9UQL6 1-1122) (enzyme)
